The conditions of data set [1]: 120 mg single oral dose.
Data set [2] in a line: clinical. To be noted: female, human, in vivo, 120 mg, AUCinf.
For data set [3] the following is noted: healthy volunteers; 120 mg single oral dose; cited from earlier work.

Molecules are shown by their SMILES. Like-named read-outs stand apart in the source and are kept apart here.

By CL/F is commonly meant the apparent clearance, not corrected for the fraction that reaches the circulation. A word on the AUC(0-inf): it is total exposure, with the tail of the curve extrapolated. Read a high AUC(0-inf) as high exposure.

In the case of `CC(C)(C(=O)O)c1ccc(C(O)CCCN2CCC(C(O)(c3ccccc3)c3ccccc3)CC2)cc1` (stereo not drawn) [fexofenadine, Fexofenadine], the CL/F in data set [1] (ABCB1 3435 wild type) stood at 169.25 L/h; in data set [1] (carriers of the ABCB1 3435 allele T), 139.51 L/h. The area under the curve AUC(0-inf) in data set [2] (carriers of two copies of the reference GCG haplotype (ABCB1 diplotype)) turned out to be 726 ng·h/mL; in data set [2] (does not carry any CGC haplotype (ABCB1 diplotype)), 724 ng·h/mL; in data set [2] (one copy of GCG haplotype (ABCB1 diplotype)), 837 ng·h/mL. Further, in data set [3], the C max range is reported as 31 to 177 ng/mL.

The values are drawn from PMC10801393 (Clinical and Translational Science, 2024).
